Measured values taken from article PMC5996148.
The other results are listed elsewhere or left out. For some of these results: The exact form of the protein is not confirmed.

Tests used:
Assay in all cases: protein microarray (ProtoArray v5.0), streptavidin-Alexa Fluor 647
Conditions in all cases: 3'-biotin; 20 mM Tris (pH 7.5), 5 mM MgCl2, 100 mM KCl, 0.1% Tween-20, A/T-rich and random oligonucleotide blockers; temperature not stated; high values mean tight binding
SAPS2 (human) = tested on: SAPS2 (human)
SAR1A (human) = tested on: SAR1A (human)
SAR1B (human) = tested on: SAR1B (human)
SCEL = target: T1, SCEL (UniProt O95171)
T1 sequence: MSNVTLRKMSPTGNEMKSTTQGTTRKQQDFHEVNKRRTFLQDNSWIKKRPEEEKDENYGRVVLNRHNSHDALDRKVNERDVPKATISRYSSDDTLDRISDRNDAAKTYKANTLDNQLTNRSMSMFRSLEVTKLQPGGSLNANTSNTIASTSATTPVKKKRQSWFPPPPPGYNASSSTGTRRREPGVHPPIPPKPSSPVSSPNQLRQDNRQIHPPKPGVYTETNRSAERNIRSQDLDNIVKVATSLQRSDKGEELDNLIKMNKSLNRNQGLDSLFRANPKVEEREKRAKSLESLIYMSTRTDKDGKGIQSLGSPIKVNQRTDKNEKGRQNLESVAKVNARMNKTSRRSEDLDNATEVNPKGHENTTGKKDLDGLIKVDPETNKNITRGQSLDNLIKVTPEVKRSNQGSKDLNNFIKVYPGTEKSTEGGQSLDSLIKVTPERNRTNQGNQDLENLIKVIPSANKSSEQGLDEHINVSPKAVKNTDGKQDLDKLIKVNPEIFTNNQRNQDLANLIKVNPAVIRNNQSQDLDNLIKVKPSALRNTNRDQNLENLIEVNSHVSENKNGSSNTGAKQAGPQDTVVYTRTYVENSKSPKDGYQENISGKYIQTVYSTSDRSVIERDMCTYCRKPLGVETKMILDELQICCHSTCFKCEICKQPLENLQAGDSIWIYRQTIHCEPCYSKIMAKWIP

SCGB1A1 (human) = tested on: SCGB1A1 (human)
SCGB1C1 (human) = tested on: SCGB1C1 (human)
SCP2 (human) = tested on: SCP2 (human)
SCRN2 (human) = tested on: SCRN2 (human)
SDC1 (human) = tested on: SDC1 (human)
SDC4 (human) = tested on: SDC4 (human)

For “GGGGACAGGGGTATGGGGAGGGG [G4-3 biotinylated (CtG)]”, which binding signal (SAPS2 (human)) is on record?
The binding signal was -0.336 z-score.

And the binding signal (SAR1A (human))?
Its binding signal is -0.336 z-score.

And the binding signal (SAR1B (human))?
The binding signal was -0.338 z-score.

What about the binding signal (SCEL) of the same sequence?
Its binding signal is 3.19 z-score.

What about the binding signal (SCGB1A1 (human)) of the same sequence?
The binding signal was -0.341 z-score.

What about the binding signal (SCGB1C1 (human)) of the same sequence?
Its binding signal is -0.34 z-score.

And the binding signal (SCP2 (human))?
Its binding signal is -0.33 z-score.

What about the binding signal (SCRN2 (human)) of the same sequence?
The binding signal was -0.322 z-score.

What about the binding signal (SDC1 (human)) of the same sequence?
The binding signal was -0.322 z-score.

What about the binding signal (SDC4 (human)) of the same sequence?
Its binding signal is -0.308 z-score.
